No constants are given. Whether binding was seen depends on the method and setting. Binding can be weak; no strength is given.
Molecular target: SmGRAS2 (Salvia miltiorrhiza)
Assay: two-hybrid; SmGRAS1-AD (pGADT7) and SmGRAS2-BD (pGBKT7) co-transformed into strain Y2H; selection on SD/-Leu/-Trp, then growth on SD/-Ade/-His/-Leu/-Trp with AbA and alpha-X-gal; 3-day incubation at 29°C

SmGRAS1 (from UniProt A0A291I303)
binding: binds

— article PMC6831727
